Test results reported in PMC10163288.
The list shows a part of the results.

B1: il10ra_site1_sap_23_mot_39ab2cb694c8b9c1dc7e65c0d672c93e_0001_000000036_0001_53_65_H_._HHH_b1_07337_0001_0000100009_0000001_0_0001 (protein)
chain: SSSSDEEYKEVKRLIEEIAEALRNNDEELVRELLEELRELAEEINNPAAEFSLRILEEALNSSSS
B2: il10ra_site1_sap_19_mot_8756ee2cf497b5429c717dfc0c0bcfd6_0001_000000186_0001_1_13_H_._HHH_b1_06619_af2_0001_0000800038_0000001_0_0001 (protein)
chain: SSSSTEERRELYRLSREAAELASDGNEEEAREVLEEVIELARELGNWAVLMNAEFLLKIHSSSSS
B3: il10ra_site1_sap_25_mot_HHH_b2_05540_000000178_0001_1_18_H_._ems_p1-15H-GBL-16H-GABBL-16H_0381_0001_0001_0001_0001_0000500025_0000002_0_0001 (protein)
chain: SSSSSDMEELYRRIAELLRRLREVSPEEREELLREAKELAEELNNEYLKRAIEHMARAVNSSSSS
B4: il10ra_site1_normal_mot_HHH_b2_08186_000000021_0001_43_56_H_._HHH_b2_05014_af2_0002_0000100001_0000002_0 (protein)
chain: SSSSDEEELRELIEEAEELLERGNPEEALEVVLRALQLAFELSNAETLQRIWELLKRIATSSSSS
B5: il10ra_site1_normal_mot_HHH_b1_00682_000000211_0001_1_20_H_._HHH_b2_08013_af2_0001_0000100007_0000001_0 (protein)
chain: SSSSDEAYRVAREAVERASELLERGNPEEAEELLEEAIRIVEELGNEAAVFSLRHLLRVVRSSSS
B6: il10ra_site1_normal_mot_HHH_b1_06789_af2_000000041_0001_1_20_H_._HHH_b1_07672_0001_0000200009_0000002_0 (protein)
chain: SSSSSNTRWLARQAFRALKRAIELGDEERIEHVAEILENLAEFANDPYARELVEEARELLSSSSS
B7: il10ra_site1_normal_mot_HHH_b1_08508_000000230_0001_42_56_H_._HHH_b2_01495_0002_0000100004_0000001_0 (protein)
chain: SSSSTEEIREAYRLSREAAEALTEGDPEEARELLEEAEELLREAGNLVVLHNVEYLLRVLDSSSS
B8: il10ra_site1_normal_mot_HHH_b1_02062_000000185_0001_1_20_H_._HHH_b1_07293_0001_0000100005_0000001_0 (protein)
chain: SSSSSEELRRAYELSRRIAELDSEGDEEEAKKLLEELQELAEELNNFVLKANIKLLEQQLSSSSS
B9: il10ra_site1_normal_mot_HHH_b1_01880_000000285_0001_23_39_H_._HHH_b2_02582_0001_0000400020_0000001_0_af2pred_0001 (protein)
chain: SSSSSSDEFEELLEEAKRLAEELGDEEIKIAIRVAERLYKLKGDPKIKWALEALLENLSSSSSSS
B10: il10ra_site1_normal_mot_HHH_b1_00456_000000263_0001_1_17_H_._HHH_b2_07290_0001_0000400032_0000001_0_af2pred_0001 (protein)
chain: SSSSSSDEEEVEELLEEAKRIEDPEERAEVLDEAYLVALEHNNPELEELVREVAKELRSSSSSSS
B11: il10ra_site1_sap_14_mot_HHH_b1_05357_000000034_0001_23_39_H_._HHH_b2_06277_0001_0000100001_0000001_0_0001 (protein)
chain: PVNEVIQRLVRLAFREGDPELLRALWKLVKRYAEGDPEAEELLEEVAELLKKDEEEAKRLLKELG
B12: il10ra_site1_sap_27_mot_0eddeacbb14b769e73e254714f31e2f9_0001_af2_000000203_0001_37_51_H_._HHH_b1_05307_af2_0001_0000800012_0000001_0_0001_af2pred_0001 (protein)
chain: SSSSSSEEVEERIKELLEQIEEAKNAHERFELAQEVLELAIEANDPELQRRVAEALAEIFSSSSS
B13: il10ra_site1_sap_23_mot_3af0db62db2b275566dae2e03bf881fa_0001_000000003_0001_37_50_H_._HHH_b1_03614_af2_0001_0000100001_0000001_0_0001 (protein)
chain: SSSSDEEEREEAEELLEQAKRIEDPEERLQVLARAAALATRANDHELLEEIQRLMVEALHSSSSS
B14: il10ra_site1_sap_18_mot_HHH_b2_00277_af2_000000172_0001_1_17_H_._HHH_b2_02521_0001_0003200045_0000002_0_0001_af2pred_0001 (protein)
chain: SSSSSEEEERLRLALRFAKRLLEDGDPEAAEFLVRAAIELARDLGDEETVQEAEELLEEINSSSS
B15: il10ra_site1_normal_mot_HHH_b2_03220_af2_000000223_0001_23_40_H_._HHH_b2_06947_0001_0000100002_0000002_0 (protein)
chain: SSSSDENEEVWELIREALELLANGNPEEAKEVLEEAERLAEEANNFAARFAIRLLLREIDSSSSS
B16: il10ra_site1_normal_mot_HHH_b2_00277_af2_000000172_0001_1_17_H_._HHH_b2_06089_0001_0000100010_0000001_0_af2pred_0001 (protein)
chain: SSSSDEEVRREVREILEEAKHIEDKEKLTYLLLRAFALASQAGDEELLREVKEVAQKLAESSSSS
B17: il10ra_site1_sap_26_mot_HHH_b2_06602_000000226_0001_1_16_H_._HHH_b1_07649_af2_0001_0000100001_0000002_0_0001 (protein)
chain: SSSSDVEEEVKELLKEAEELREEGDPEEAAKVLQEAVHLAYQAQDPELLHLVWEVVKRLGTSSSS
B18: il10ra_site1_sap_11_mot_HHH_b1_00103_000000293_0001_1_15_H_._HHH_b2_04504_0001_0000400018_0000001_1_0001 (protein)
chain: SSSSSDEEEEEFKELRREAEEAKNADERYEVIKRLIEIASELNDEELERLVHEIIHRLLRSSSSS
B19: il10ra_site1_normal_mot_HHH_b2_00475_000000107_0001_44_57_H_._HHH_b1_07089_af2_0001_0000300033_0000001_0_af2pred_0001 (protein)
chain: SSSSDDEKVVRLLFEALELIAQGNLEEAEELLKEAEKIARENNDEELERKVEQALKLVRNESSSS
B20: il10ra_site1_sap_18_mot_1cde5897893f3d1588f92be3b001cdf2_0001_af2_000000130_0001_54_65_H_._HHH_b1_03640_af2_0001_0001000026_0000001_0_0001 (protein)
chain: SSSSSSVEEIKKLIEEIKELVEEGNEEEAKELTEQAKEIAEELGDQLAARTVEYFLRLQISSSSS
B21: il10ra_site1_sap_18_mot_HHH_b1_06816_000000239_0001_1_19_H_._HHH_b1_04212_0001_0000100009_0000001_0_0001_af2pred_0001 (protein)
chain: SSSSSDEDRQRLLKLLLRAKRLGVEEAREVVHKALLLLSEGRLSPEELEKLEEEAERLLGSSSSS
B22: il10ra_site1_sap_18_mot_HHH_b2_00479_000000091_0001_1_12_H_._HHH_b2_06355_0001_0000300025_0000001_0_0001 (protein)
chain: TELMTRILKKILERDPELAKRAVEQQLRLQGVPPEEIEELQEQLEELAKEDPEEAARFVAEVIIR
B23: il10ra_site1_sap_17_mot_HHH_b2_05972_af2_000000208_0001_1_16_H_._HHH_b1_01803_0001_0000500042_0000001_0_0001 (protein)
chain: SSSSDRRREVYELLRRAVELDHEGDKEEAEEVLREAEELAREANDPLFLRQVEFLKRILEGSSSS
B24: il10ra_site1_normal_mot_HHH_b1_05056_000000217_0001_1_20_H_._HHH_b1_04083_0001_0000400040_0000002_0 (protein)
chain: SSSSDEEEYRREVEELLEEAEHIPDLREATRLLQEAVRLAYELQDPELLQLIWEVVKRVASSSSS
B25: il10ra_site1_sap_25_mot_39ab2cb694c8b9c1dc7e65c0d672c93e_0001_000000036_0001_53_65_H_._HHH_b1_05662_af2_0001_0000300011_0000002_0_0001_af2pred_0001 (protein)
chain: SSSSSEEFEELERRIRELLEEGDLHEAAALVVRLYAVANKLGDPELEEIVKELARIIAELLSSSS
B26: il10ra_site1_sap_22_mot_HHH_b2_07873_af2_000000172_0001_1_19_H_._HHH_b1_02227_af2_0001_0000300012_0000002_0_0001_af2pred_0001 (protein)
chain: SSSSNAAEHLVELAIEAAKLALEAGDPELARRALEIAELLAQQANNPELEEEVRELLEELSSSSS
B27: il10ra_site1_normal_mot_HHH_b2_00273_000000062_0001_23_39_H_._HHH_b2_06634_af2_0001_0000100003_0000001_0 (protein)
chain: SSSSDEEEEEVRELLERAEELIERGNPEEALRLLMEAIRVAFRGSDPELIEAIWKVARKLLSSSS
B28: il10ra_site1_normal_mot_HHH_b1_02997_000000220_0001_39_52_H_._HHH_b1_01787_0001_0000100005_0000001_0 (protein)
chain: SSSSSSSEELFELSRLVAELLFEGNEEEARRVIEEAKELAEEAGNLNFLWNIEYLERQVNSSSSS
B29: il10ra_site1_normal_mot_HHH_b2_07521_000000141_0001_20_37_H_._HHH_b1_01333_0001_0000300010_0000001_1_af2pred_0001 (protein)
chain: SSSSSDEEARRAIRLSIKAAKQIDDPERARLTLRDALASARFLGDEELQEEIERLLEEVNSSSSS
B30: il10ra_site1_sap_23_mot_HHH_b1_02809_af2_000000277_0001_40_57_H_._HHH_b1_05790_af2_0001_0000500027_0000001_0_0001 (protein)
chain: SSSSDERYEEIKRALQEVLEAVRNGDEELFEELFEEAREIIEKTNTISAKFALEQARAALGSSSS
B31: il10ra_site1_normal_mot_HHH_b2_06857_af2_000000179_0001_42_54_H_._76fe7993c3ad9ffb2b2ee76f24d0ea53_0001_0001_0000300015_0000001_0 (protein)
chain: SLEEKLEEIKKLGVPPLVVEQFKFAFRRQREAGIPPEEVLEYLEEVAKRANNPRLEEVIKLVAET
B32: il10ra_site1_sap_14_mot_b26a303360aa2756ef5b79665ce52f45_0001_000000179_0001_1_11_H_._HHH_b1_03361_af2_0001_0000100001_0000001_1_0001 (protein)
chain: SSSSSDEEIKERVEELLEEAEEIPDRHEALRLLIEALRLAFQAGDPELLQLIWRVAKELESSSSS
B33: il10ra_site1_normal_mot_HHH_b1_02492_000000051_0001_1_21_H_._HHH_b2_07864_af2_0001_0000300025_0000001_1 (protein)
chain: SSSSNEEYDELYELLRELIELVREGDEEEFERLLKEVKELAEELNDFATRFVVRLLERDLTSSSS
B34: il10ra_site1_sap_27_mot_HHH_b2_06090_af2_000000001_0001_1_19_H_._HHH_b1_07370_af2_0001_0000200015_0000001_0_0001_af2pred_0001 (protein)
chain: SSSSSSSELEQRVRALLFFAELATNPEARKLALEIAERLAEENNNEELEELVKEVQEKLSSSSSS
B35: il10ra_site1_normal_mot_HHH_b2_02053_af2_000000006_0001_3_19_H_._HHH_b1_08287_0001_0000100005_0000001_0 (protein)
chain: SSSSTEETEELYELLRELLELVFEGNEEEFERVVEEIHRLAEEGNNFIFLFSLREAEKSFNSSSS
B36: il10ra_site1_sap_21_mot_HHH_b1_07478_000000026_0001_21_37_H_._HHH_b1_05924_0001_0000500028_0000001_0_0001 (protein)
chain: SSSNAERSIERMLEAVKDLLKQGDREYAKLALRFLEHEIRWLGDEELEEILEELKELLEELSSSS
B37: il10ra_site1_normal_mot_HHH_b2_07521_000000141_0001_20_37_H_._HHH_b1_00233_af2_0001_0000400029_0000002_0 (protein)
chain: SSSSDEYVELSLRFAKQLVESGDPEAAERIAHAALQLAERNNDPELAEELEELLEEIRRRSSSSS

Biological target: il10ra, Q13651
Experiment: yeast display titration

Apparent Kd, inactive:
B1 no binding seen, B2 no binding seen, B3 no binding seen, B4 no binding seen, B5 no binding seen, B6 no binding seen, B7 no binding seen, B8 no binding seen, B9 no binding seen, B10 no binding seen, B11 no binding seen, B12 no binding seen, B13 no binding seen, B14 no binding seen, B15 no binding seen, B16 no binding seen, B17 no binding seen, B18 no binding seen, B19 no binding seen, B20 no binding seen, B21 no binding seen, B22 no binding seen, B23 no binding seen, B24 no binding seen, B25 no binding seen, B26 no binding seen, B27 no binding seen, B28 no binding seen, B29 no binding seen, B30 no binding seen, B31 no binding seen, B32 no binding seen, B33 > 315 nM, B34 no binding seen, B35 no binding seen, B36 no binding seen, B37 no binding seen
